According to article doi:10.1101/2023.05.21.541661:
Results are given in words; binding and its absence hold for the method and conditions named. Binding seen in cells or lysates may run through a third protein. Some results given as binding are weak or reduced against the parent protein; the word gives no strength. Where a sequence is shown, tags or fusion partners need not be part of it. Each block holds one binder with its values, some of them ahead of it.

Tests used:
Assay in all cases: co-IP
FLAG-MCP-SFPQ WT, P23246 = target: T1, FLAG-MCP-SFPQ WT, P23246; conditions: remark: other sources report otherwise
T1 chain: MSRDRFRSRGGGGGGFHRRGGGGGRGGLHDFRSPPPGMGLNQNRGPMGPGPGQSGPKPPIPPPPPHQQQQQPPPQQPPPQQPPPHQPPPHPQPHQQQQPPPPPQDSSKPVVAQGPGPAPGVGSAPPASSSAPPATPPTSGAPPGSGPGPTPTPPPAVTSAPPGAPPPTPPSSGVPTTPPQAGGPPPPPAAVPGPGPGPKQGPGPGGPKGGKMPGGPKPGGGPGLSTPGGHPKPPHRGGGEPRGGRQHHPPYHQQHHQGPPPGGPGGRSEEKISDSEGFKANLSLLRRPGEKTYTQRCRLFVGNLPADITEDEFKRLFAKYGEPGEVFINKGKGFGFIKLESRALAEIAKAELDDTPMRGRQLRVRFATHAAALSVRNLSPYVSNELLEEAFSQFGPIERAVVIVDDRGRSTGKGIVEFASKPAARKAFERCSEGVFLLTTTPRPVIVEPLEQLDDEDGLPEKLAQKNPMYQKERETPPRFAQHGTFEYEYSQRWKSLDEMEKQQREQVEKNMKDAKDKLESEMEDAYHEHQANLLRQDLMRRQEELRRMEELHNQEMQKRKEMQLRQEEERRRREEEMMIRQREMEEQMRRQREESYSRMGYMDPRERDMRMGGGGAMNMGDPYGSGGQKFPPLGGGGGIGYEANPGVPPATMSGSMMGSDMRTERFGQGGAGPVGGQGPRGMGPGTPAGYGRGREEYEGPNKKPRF

FLAG-MCP-SFPQ WT = target: T2, FLAG-MCP-SFPQ WT (UniProt P23246)
T2 sequence: T1 chain

FLAG-MCP-SFPQ ΔCC = target: T3, FLAG-MCP-SFPQ ΔCC (UniProt P23246)
T3 sequence: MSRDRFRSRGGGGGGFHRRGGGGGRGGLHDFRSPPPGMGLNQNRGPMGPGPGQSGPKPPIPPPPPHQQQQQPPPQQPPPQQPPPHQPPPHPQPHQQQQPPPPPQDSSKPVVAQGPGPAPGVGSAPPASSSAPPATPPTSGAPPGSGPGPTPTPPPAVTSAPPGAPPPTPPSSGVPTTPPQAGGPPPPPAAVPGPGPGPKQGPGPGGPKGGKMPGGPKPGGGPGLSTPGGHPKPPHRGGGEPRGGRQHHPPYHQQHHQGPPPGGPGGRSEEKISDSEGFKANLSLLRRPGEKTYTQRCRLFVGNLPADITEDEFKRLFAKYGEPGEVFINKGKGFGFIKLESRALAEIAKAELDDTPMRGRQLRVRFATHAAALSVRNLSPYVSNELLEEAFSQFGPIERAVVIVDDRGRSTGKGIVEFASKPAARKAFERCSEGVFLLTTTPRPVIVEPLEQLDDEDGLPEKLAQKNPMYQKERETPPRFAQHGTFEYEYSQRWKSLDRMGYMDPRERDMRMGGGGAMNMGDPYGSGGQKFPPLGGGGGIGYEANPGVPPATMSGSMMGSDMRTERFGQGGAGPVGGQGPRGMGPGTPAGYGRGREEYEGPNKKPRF

FLAG-MCP-SFPQ ΔPLD = target: T4, FLAG-MCP-SFPQ ΔPLD (UniProt P23246)
T4 sequence: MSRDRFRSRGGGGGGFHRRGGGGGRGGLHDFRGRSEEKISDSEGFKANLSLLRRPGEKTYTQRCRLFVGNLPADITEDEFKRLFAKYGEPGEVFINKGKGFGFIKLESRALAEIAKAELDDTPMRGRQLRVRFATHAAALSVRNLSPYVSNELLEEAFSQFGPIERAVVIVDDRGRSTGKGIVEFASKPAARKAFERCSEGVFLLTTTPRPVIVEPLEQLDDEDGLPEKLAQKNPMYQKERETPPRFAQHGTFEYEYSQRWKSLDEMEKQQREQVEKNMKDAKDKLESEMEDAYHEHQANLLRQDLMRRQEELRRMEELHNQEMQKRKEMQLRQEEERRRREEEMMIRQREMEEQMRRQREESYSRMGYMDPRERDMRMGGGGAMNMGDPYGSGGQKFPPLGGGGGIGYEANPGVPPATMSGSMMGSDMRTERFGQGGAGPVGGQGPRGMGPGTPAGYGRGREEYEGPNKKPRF

FLAG-MCP-SFPQ ΔRRM2/NOPS = target: T5, FLAG-MCP-SFPQ ΔRRM2/NOPS (UniProt P23246)
T5 sequence: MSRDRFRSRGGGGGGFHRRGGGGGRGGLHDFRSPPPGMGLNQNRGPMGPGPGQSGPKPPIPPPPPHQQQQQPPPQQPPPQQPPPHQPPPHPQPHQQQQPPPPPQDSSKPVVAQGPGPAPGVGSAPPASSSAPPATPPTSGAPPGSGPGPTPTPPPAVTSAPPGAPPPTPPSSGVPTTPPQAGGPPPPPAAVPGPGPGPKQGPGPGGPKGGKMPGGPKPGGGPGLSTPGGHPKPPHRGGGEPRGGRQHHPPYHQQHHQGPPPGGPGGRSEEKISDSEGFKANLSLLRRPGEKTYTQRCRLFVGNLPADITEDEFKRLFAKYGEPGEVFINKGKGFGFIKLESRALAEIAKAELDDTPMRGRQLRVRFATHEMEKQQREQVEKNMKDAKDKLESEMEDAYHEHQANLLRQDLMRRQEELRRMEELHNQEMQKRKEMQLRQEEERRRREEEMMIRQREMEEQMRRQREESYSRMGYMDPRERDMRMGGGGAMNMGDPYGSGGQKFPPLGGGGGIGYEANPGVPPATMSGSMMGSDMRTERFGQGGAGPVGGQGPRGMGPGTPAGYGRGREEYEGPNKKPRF

- binding (FLAG-MCP-SFPQ WT, P23246): binds
B1: HA-SFPQ, P23246 1-707 (protein)
chain: T1 chain

- binding (FLAG-MCP-SFPQ WT): binds
- binding (FLAG-MCP-SFPQ ΔCC): no binding
- binding (FLAG-MCP-SFPQ ΔPLD): binds
- binding (FLAG-MCP-SFPQ ΔRRM2/NOPS): no binding
B2: PSPC1 (protein, UniProt Q8WXF1 1-523)
chain: MMLRGNLKQVRIEKNPARLRALESAVGESEPAAAAAMALALAGEPAPPAPAPPEDHPDEEMGFTIDIKSFLKPGEKTYTQRCRLFVGNLPTDITEEDFKRLFERYGEPSEVFINRDRGFGFIRLESRTLAEIAKAELDGTILKSRPLRIRFATHGAALTVKNLSPVVSNELLEQAFSQFGPVEKAVVVVDDRGRATGKGFVEFAAKPPARKALERCGDGAFLLTTTPRPVIVEPMEQFDDEDGLPEKLMQKTQQYHKEREQPPRFAQPGTFEFEYASRWKALDEMEKQQREQVDRNIREAKEKLEAEMEAARHEHQLMLMRQDLMRRQEELRRLEELRNQELQKRKQIQLRHEEEHRRREEEMIRHREQEELRRQQEGFKPNYMENREQEMRMGDMGPRGAINMGDAFSPAPAGNQGPPPMMGMNMNNRATIPGPPMGPGPAMGPEGAANMGTPMMPDNGAVHNDRFPQGPPSQMGSPMGSRTGSETPQAPMSGVGPVSGGPGGFGRGSQGGNFEGPNKRRRY
